These results are taken from ChEMBL document CHEMBL5390228, “Unnatural Endotype B PPAPs as Novel Compounds with Activity against Mycobacterium tuberculosis” (J Med Chem, 2023).

Protein sequences, listed by entry. Tags and fused reporters are not part of them.
UniProt P08684, whole entry: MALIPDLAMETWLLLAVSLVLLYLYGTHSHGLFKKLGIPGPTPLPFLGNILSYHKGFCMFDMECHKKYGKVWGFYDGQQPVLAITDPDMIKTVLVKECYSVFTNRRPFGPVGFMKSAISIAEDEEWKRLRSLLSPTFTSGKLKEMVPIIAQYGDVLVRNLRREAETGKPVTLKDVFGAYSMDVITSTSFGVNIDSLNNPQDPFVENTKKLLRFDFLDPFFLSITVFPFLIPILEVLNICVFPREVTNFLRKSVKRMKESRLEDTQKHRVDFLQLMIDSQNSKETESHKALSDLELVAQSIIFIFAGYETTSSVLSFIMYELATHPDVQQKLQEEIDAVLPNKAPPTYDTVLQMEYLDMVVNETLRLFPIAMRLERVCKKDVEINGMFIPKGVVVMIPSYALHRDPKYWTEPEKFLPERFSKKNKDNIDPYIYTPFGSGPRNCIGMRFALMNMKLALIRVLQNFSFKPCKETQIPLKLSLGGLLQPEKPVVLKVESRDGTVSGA

In this data set the target is CYP3A4 (Homo sapiens, UniProt P08684). Description: in vitro. As to conditions: heparg.

`CC(C)=CCC[C@]1(C)[C@@H](CC=C(C)C)C[C@]2(CC=C(C)C)C(=O)C(CC=C(C)C)=C(O)[C@@]1(C(=O)C(C)C)C2=O` registered a fold induction at 96 h, 0.5 µM of 8.
